Laboratory results taken from PubChem BioAssay AID1487 (National Center for Advancing Translational Sciences (NCATS), 2009).
In all, about 200,000 compounds went through this assay and about 25 (0.01%) were called active. Inconclusive results, whose numbers are uncertain, are shown with a selection of clear calls. Calls come from the whole dose curve; as a rule, active = well fitted inhibition curve with a large enough effect in the signal ratio, with a control signal flat (not every such curve was filed as active); inconclusive = small, poorly fitted or top-dose-only effect, or effect the other way, or a change in a side signal; inactive = flat fitted curve, though single readings scatter; the % refers to the signal ratio. A potency beside an inconclusive call is a rough fit, not a confirmed value.

test: qHTS Assay for Modulators of Lamin A Splicing; conditions: HeLa LMNA splicing GFP/RFP minigene ratio, 48 h; ratio change, negative = inhibition: at 46.1 µM (top of the series) unless noted
Source text: NCGC Assay Overview: Hutchinson-Gilford Progeria Syndrome (HGPS) is a pediatric premature aging disease caused by a spontaneous mutation in the lamin A/C (LMNA) gene. The mutation activates a cryptic splice site in the LMNA pre-mRNA which results in production of a pre-lamin A protein that cannot be processed properly. The mutant protein accumulates in the nucleus and negatively affects numerous cellular functions. Correction of the splicing defect in HGPS patient cells using a targeted oligonucleotide (exo11) leads to reversal of the cellular disease phenotypes. To identify small molecule modulators of aberrant LMNA splicing, a homogenous assay was constructed in HeLa cells that used a GFP containing minigene to report on correction of aberrant splicing in lamin A and a RFP (DsRed2) to report on cell viability, uniformity and nonspecific effects on the assay signal. This assay was adapted to laser-scanning microplate cytometry (Acumen, TTP Labtech) where miniaturization of the assay to a 1,536-well plate format was possible. References: Bowen, W. P.; Wylie, P. G. Application of Laser-Scanning Fluorescence Microplate Cytometry in High Content Screening. Assay Drug Dev Technol 2006;4:209-221. Scaffidi P, Misteli T. Reversal of the cellular phenotype in the premature aging disease Hutchinson-Gilford progeria syndrome. Nat.
NCGC Assay Protocol Summary: Reagents/Controls: Stable clones expressing DsRed2 and lamin A-EGFP were generated by Cell and Molecular Technologies in S3 HeLa cells. HeLa cells were prepared for the assay when they were 70-90% confluent. The cells were counted and resuspended in Opti-MEM I (no phenol red; Gibco), 2% FBS, 1% penicillin/ streptomycin (Gibco) at concentration of 120 cells/uL concentration. The suspension was passed through a Falcon basket filter with pore size 40um (Beckton Dickson). Control titrations: column […] 1536-well plate contained a sixteen point titration (1:2 dilutions) in duplicate of ancitabine (Sigma: A8598) beginning at 40 uM final concentration. Column 2 contained a sixteen point titration (1:2 dilutions) of cycloheximide beginning at 1.4 mM final concentration. Column 3 contained ancitabine at 40 uM and column 4 contained was the vehicle control (0.5% DMSO final concentration). Assay Steps: 5 uL of HeLa cells were plated in Aurora LoBase black clear bottom (cyclic-olefin polymer) 1536-well plates at a final density of 600 cells/well. Controls and library compounds were added with a 1536-well pin array using the Kalypsys pin-tool. The plates were then incubated for 48 hrs in a cell-culture incubator (37 °C; 5% CO2, 98% humidity). Following incubation the plates were read on the Acumen Explorer using the 488 nm laser. Data was collected on objects between 10 and 100 um in size. Cell objects were defined by a 15 um width x 10 um depth filter. The ratio of the total object intensity in PMT1 (500-530 nm emission; GFP) over PMT3 (575-640 nm emission; RFP) was calculated for analysis. Keywords: NIH Roadmap, MLSCN, MLI, MLSMR, qHTS, NCGC, lamin A, Progeria, RNA splicing.
% is set by controls: 0 for no effect and ±100 for the full control effect; potency is the fitted concentration of half-maximal effect.

Row | Compound | ratio change, negative = inhibition | Potency
1 | CCN(CCCNC(=O)CN1N=C(c2ccc(OC)cc2)CCC1=O)c1cccc(C)c1 | inactive: 4.04% [at 46 µM] | 
2 | S=C(NCCc1ccccc1)NC1CC1 | inconclusive: 4.22% | 
3 | COc1ccc(-c2ccc(NS(=O)(=O)c3ccc(C(C)=O)cc3)cc2)nn1 | inconclusive: -4.09% [at 46 µM] | 
4 | C[C@H](NC(=O)c1ccc(Cl)cc1)C(=O)NCCc1ccc(S(N)(=O)=O)cc1 | inconclusive: -33.7% [at 46 µM] | 
5 | O=C(CSc1ncn[nH]1)N1N=C(c2ccc(Cl)cc2)CC1c1ccco1 (stereo not given) | inconclusive: -28.9% [at 46 µM] | 
6 | Cc1ccc(C(=O)Oc2cccnc2)cc1[N+](=O)[O-] | inactive: 1.55% | 
7 | CC(=O)c1ccc(Sc2ccccc2N)c([N+](=O)[O-])c1 | inconclusive: 0.707% [at 46 µM] | 
8 | CC1Cc2ccccc2N1C(=O)CSc1nnnn1C1CCCC1 (stereo not given) | inactive: 15.4% | 
9 | CC(C)Cc1ccc(S(=O)(=O)Nc2cc3c(cc2N2CCOCC2)n(C)c(=O)c(=O)n3C)cc1 | inactive: 19.7% [at 46 µM] | 
10 | Cc1ccc(CNC(=O)CCCCCn2c(=O)[nH]c3ccccc3c2=O)cc1 | inactive: 7.35% [at 46 µM] | 
11 | Cc1ccc(C)c(N2CCN(C(=O)c3ccc(NC(=O)c4nsc5ccccc45)cc3)CC2)c1 | inconclusive: -13.5% [at 46 µM] | 
12 | Cc1ccc(OCCC(=O)Nc2ccc(F)c(F)c2)cc1 | inconclusive: -0.2% | 
13 | COCCn1c(SCC(=O)Nc2ccc(Cl)cn2)nc2ccccc21 | inconclusive: 37.3% | 
14 | Cc1nc(C)c(-c2ccc(SCC(=O)Nc3ccc(Br)cc3)nn2)s1 | inconclusive: -1.25% [at 46 µM] | 
15 | CCn1nc(C(=O)Nc2nc3ccccc3[nH]2)c2ccccc2c1=O | inconclusive: 8.39% | 
16 | C/C(=N\NC(=O)c1ccccc1O)c1ccc(Br)s1 |  | inconclusive: 11.2 µM [falling, partial curve]
17 | Cc1c(Br)c([N+](=O)[O-])nn1CC(=O)NCc1ccccc1 | inconclusive: 2.94% [at 46 µM] | 
18 | CC(=O)c1cc2c(cc1N/C(=N/S(=O)(=O)c1ccc(Cl)cc1)c1ccc(F)cc1)OCO2 | inactive: 11.2% [at 46 µM] | 
19 | O=C(COc1ccccc1)NCCSCc1ccco1 | inactive: -7.36% | 
20 | CC(/C=N/NC(=O)c1ccco1)=C\c1ccccc1 | inconclusive: 26.6% [at 9.22 µM] | 
21 | Nc1cc2c([N+](=O)[O-])cccc2o1 | inconclusive: 3.17% | 
22 | CC(C)C(NC(=O)OCc1ccccc1)C(=O)NCC(=O)OC(C)(C)C (stereo not given) | inactive: 0.694% | 
23 | CN1C(=O)Cc2cc(S(=O)(=O)N3CCN(c4ccccc4F)CC3)ccc21 | inactive: 9% [at 46 µM] | 
24 | COc1ccc(S(=O)(=O)N2CCN(c3cc(-c4ccccc4)nc4ncnn34)CC2)cc1 |  | inconclusive: 14.1 µM [fluorescent, single point]
25 | Cc1ccccc1NC(=O)c1ccc(CN(c2ccccc2)S(=O)(=O)c2ccccc2)cc1 | inconclusive: 1.64% | 
26 | NC(N)=Nc1nc2cc([N+](=O)[O-])ccc2o1 | inconclusive: 1.29% [at 46 µM] | 
27 | COc1ccccc1NC(=O)C(=O)NCC(c1ccc2c(c1)OCO2)N1CCOCC1 (stereo not given) | inactive: -12% [at 46 µM] | 
28 | CCOC(=O)C(NC(=O)CCl)(Nc1sc(C)c(CC)c1C#N)C(F)(F)F (stereo not given) | inconclusive: -13.6% | 

Part of the list above in order of molecular weight, low to high:
Row | Compound | ratio change, negative = inhibition | Potency
15 | CCn1nc(C(=O)Nc2nc3ccccc3[nH]2)c2ccccc2c1=O | inconclusive: 8.39% | 
8 | CC1Cc2ccccc2N1C(=O)CSc1nnnn1C1CCCC1 (stereo not given) | inactive: 15.4% | 
25 | Cc1ccccc1NC(=O)c1ccc(CN(c2ccccc2)S(=O)(=O)c2ccccc2)cc1 | inconclusive: 1.64% | 

The results go on:

Row | Compound | ratio change, negative = inhibition | Potency
29 | CCn1cc(CN2CCN(Cc3cccc(OC)c3)C(CCO)C2)c(C)n1 (stereo not given) | inconclusive: 3.54% [at 46 µM] | 
30 | COc1ccc(/C=N/NC(=O)c2cccc(OC(F)(F)C(F)F)c2)cc1O | inactive: -4.28% | 
31 | COc1ccc(NC(=O)c2nc3ccccc3s2)cc1 | inconclusive: -34.6% | 
32 | Cc1cc(N2C(=O)C3C4CC(C(Br)C4Br)C3C2=O)no1 (stereo not given) | inconclusive: 9.04% | 
33 | COc1ccc(C(=O)NC(=S)Nc2ccc(CN3CCCCC3)cc2)cc1Cl |  | inconclusive: 1.12 µM [rising, full curve]
34 | N#Cc1cccc(-c2nc3cnc(N4CCOCC4)nc3n(C[C@H]3CCCO3)c2=O)c1 | inactive: -4.67% | 
35 | O=C1CSC(c2ccccc2[N+](=O)[O-])N1c1ccccc1 (stereo not given) | inconclusive: -4.78% [at 46 µM] | 
36 | Cc1ccc(C)c(CSc2ccc3nnc(-c4ccccn4)n3n2)c1 | inconclusive: -18% [at 46 µM] | 
37 | COc1cccc(C(CC(=O)Nc2cccc3ccccc23)NC(=O)c2ccccc2)c1 (stereo not given) |  | inconclusive: 35.5 µM [cytotoxic, single point]
38 | O=[N+]([O-])c1cc(C(F)(F)F)ccc1Oc1cccnc1[N+](=O)[O-] | inconclusive: 1.37% | 
39 | O=C(CN1CCC(NC(=O)c2cccc(F)c2)CC1)NCc1cccs1 | inconclusive: 33% [at 46 µM] | 
40 | O=C(CCl)Nc1cccc(-c2cnc3ccccc3n2)c1 |  | inconclusive: 35.5 µM [rising, single point]
41 | COc1cc2cnc(Cl)nc2cc1OC | inconclusive: 6.64% | 
42 | CCC(=O)Nc1nc2c(OC)ccc(OC)c2s1 | inactive: 1.59% | 
43 | COc1ccc(NC(=O)CC23CC4CC(CC(C4)C2)C3)cn1 | inconclusive: 9.95% [at 46 µM] | 
44 | Cc1ccccc1S(=O)(=O)c1c(C)cc(C)n(CC(C)C)c1=O | inactive: 18% | 
45 | Cc1ccccc1CN1CCN(S(=O)(=O)c2ccc(F)cc2)CC1 | inactive: -15.8% | 
46 | COc1ccc(OCCNC(=O)/C=C/c2ccc([N+](=O)[O-])cc2)cc1 | inconclusive: -1.91% | 
47 | CCOC(=O)N1CCN(S(=O)(=O)c2ccc(C(=O)NNc3nc4c(C)cc(C)cc4s3)cc2)CC1 | inconclusive: -44.8% | 
48 | c1ccc(-c2n[nH]c3ccccc23)cc1 | inactive: -9.41% | 
49 | O=c1oc2c(O)c(O)cc3c(=O)oc4c(O)c(O)cc1c4c23 | inactive: 11.5% | 
50 | Cc1ccc(/C=C/c2nc3ccccc3n2S(=O)(=O)c2cccc(Cl)c2)cc1 | inactive: -10% [at 46 µM] | 
51 | CCOc1cc(/C=C2\SC(=N)N(c3nonc3N)C2=O)ccc1OCC(N)=O | inconclusive: -2.58% | 
52 | Cc1nn(C)c(C(=O)NCc2ccc(Cl)cc2)c1Cl |  | inconclusive: 2.51 µM [fluorescent, full curve]
53 | CCOc1cc(/C=N/NC(=O)C(C)Sc2ccccc2)ccc1O (stereo not given) | inconclusive: -2.54% [at 46 µM] | 
54 | CC(C)(C)C(=O)Nc1cccc2[nH]ncc12 | inconclusive: 19.2% [at 46 µM] | 
55 | O=C1c2cnc3nc(SCc4ccc(Cl)cc4)nn3c2CC2c3ccccc3CCN12 (stereo not given) | inconclusive: 0.0826% | 
